SMILES strings stand for the structures. Structures can show the parent of a compound that is named as a salt. The whole screen tested about 3,300 compounds, of which about 60 (2%) showed an effect of 50% or more. This is one part of the list.

This test relates to HCoV-OC43. More on the design: species or system RD; HTS, protection from HCoV-OC43 induced cell death, luminescent cell viability (CellCounting-Lite 2.0), inhibition rate. As to conditions: 24 h, 10 µM; inhibitor.
Take `CN1[C@@H]2CC[C@H]1CC(O)C2` (some centres unmarked) [Tropine]: the “OC43 Inhibition rate” value is given as -1.9%.

For `COC(=O)[C@]12OC[C@]34[C@H]([C@@H](O)[C@@H]1O)[C@@]1(C)CC(=O)C(O)=C(C)[C@@H]1C[C@H]3OC(=O)[C@H](OC(=O)/C=C(\C)C(C)(C)OC(C)=O)[C@@H]24` [Bruceantinol], the “OC43 Inhibition rate” value is reported as -6%. The same measure for `O=C1C=CC(=O)c2c(O)ccc(O)c21` [Naphthazarin]: 0.2%.

Turning to `CCCCCc1cc(O)cc(O)c1` [Olivetol], the “OC43 Inhibition rate” value stood at 3.2%. In the case of `CCN1C[C@]2(COC)[C@H](O)C[C@H](OC)[C@]34C1[C@H]([C@H](OC)[C@H]23)[C@]1(O)[C@H]2[C@@H](O)[C@](O)(C[C@H]24)[C@@H](OC)[C@@H]1O` [Aconine], the “OC43 Inhibition rate” value worked out at 0.1%. With `CCN1C[C@]2(COC)[C@H](O)C[C@H](OC)[C@@]34[C@@H]5C[C@@]6(O)[C@H](OC(=O)c7ccccc7)[C@@H]5[C@@](O)([C@@H]([C@H](OC)[C@H]23)[C@@H]14)[C@@H](O)[C@@H]6OC` [Benzoylaconine], the “OC43 Inhibition rate” value is 0.2%.

Turning to `CCCCOC(=O)c1ccccc1C(=O)OCC(C)C` [Butyl isobutyl phthalate], the “OC43 Inhibition rate” value is -0.4%. The same measure for `COc1cc([C@@H]2c3cc4c(cc3C(=O)[C@H]3COC(=O)[C@H]23)OCO4)cc(OC)c1OC` [Podophyllotoxone]: 4.4%; for `CCN1C[C@]2(COC)CC[C@H](OC)[C@]34C1[C@H]([C@H](OC)[C@H]23)[C@@]1(OC(C)=O)C[C@H](OC)[C@@]2(O)C[C@@H]4[C@@H]1[C@H]2OC(=O)c1ccc(OC)cc1` [Crassicauline A]: 2.9%; for `C=C1C/C(=C/C)C(=O)O[C@@H]2CCN3CC=C(COC(=O)[C@]1(C)O)[C@H]23` [Seneciphylline]: -0.4. The same measure for `CO[C@@H]1C[C@H](O[C@H]2CC[C@@]3(C)[C@H](CC[C@@]45O[C@@]46CC[C@H](C4=CC(=O)OC4)[C@@]6(C)CC[C@H]35)C2)O[C@H](C)[C@@H]1O` [Adynerin]: 0.7%. The same measure for `COC(=O)C[C@](O)(CCC(C)(C)O)C(=O)O[C@@H]1C(OC)=C[C@]23CCCN2CCc2cc4c(cc2[C@H]13)OCO4` [Harringtonine]: 3.4%. For the compound `O=C(O)CC[N+](=O)[O-]` [3-Nitropropanoic acid], the “OC43 Inhibition rate” value is reported as -0.1%.

In the case of `O=[N+]([O-])c1ncc[nH]1` [Azomycin], the “OC43 Inhibition rate” value is 1.1%. The same measure for `CO[C@H]1C[C@H](O[C@H]2CC[C@]3(C)[C@H]4CC[C@]5(C)[C@@H](C6=CC(=O)OC6)CC[C@]5(O)[C@@H]4CC[C@]3(O)C2)O[C@H](C)[C@H]1O[C@@H]1O[C@H](CO)[C@@H](O)[C@H](O)[C@H]1O` [Periplocin]: 14.6; for `COC1c2c(ccc3c2OCO3)-c2ccc3cc4c(cc3c2N1C)OCO4` (centres unmarked) [6-Methoxydihydrosanguinarine]: -2.9%. As to `CCN1C[C@]2(COC)CC[C@H](O)[C@]34C1[C@@](O)([C@@H](OC)[C@H]23)[C@@]1(O)C[C@H](OC)[C@H]2C[C@@H]4[C@@H]1[C@H]2OC` [Delsoline], the “OC43 Inhibition rate” value is -0.5%. `COc1ccccc1OC` [1,2-Dimethoxybenzene]: the “OC43 Inhibition rate” value is on record as -0.2%. In the case of `COc1cc2ccc(=O)oc2c2ccoc12` [Sphondin] it was 0.1%; in that of `CCC1CCC(=O)O1` (centres unmarked) [γ-Hexalactone], -0.1%; in that of `COc1cc(C=O)cc(OC)c1OC` [3,4,5-Trimethoxybenzaldehyde], -0.3%.

As for `COC[C@@]12CC[C@H](OC)[C@]34C([C@H]([C@H](OC)[C@H]13)[C@]1(O)[C@H]3[C@@H](OC(=O)c5ccccc5)[C@](O)(C[C@H]34)[C@@H](OC)[C@@H]1O)N(C)C2` [Benzoylhypaconine], the “OC43 Inhibition rate” value was found to be 0.5%. The same measure for `O=C(C[C@@H]1NCCC[C@H]1O)Cn1cnc2ccccc2c1=O` [Febrifugine]: 6.4%.

Take `COc1cc2c(cc1OC)[C@@H]1C(=O)c3ccc4c(c3O[C@@H]1CO2)CC(C(C)C)O4` (some centres unmarked) [Dihydrorotenone]: the “OC43 Inhibition rate” value is reported as -0.1%. On to `COc1cc2c(cc1OC)[C@@H]1C(=O)c3ccc4c(c3O[C@@H]1CO2)C=CC(C)(C)O4` [Deguelin], for which the “OC43 Inhibition rate” value was -2.2. Take `C[C@H]1CC[C@@H]2N(C1)C[C@H]1[C@@H]3C[C@H]4[C@@H](C[C@@H](O)[C@H]5C[C@@H](O)CC[C@@]54C)[C@@H]3CC[C@@H]1[C@]2(C)O` [Isoverticine]: the “OC43 Inhibition rate” value came to 11.4%. In the case of `CC(=O)OC(C)(C)/C=C/C(=O)[C@](C)(O)[C@H]1[C@H](O)C[C@@]2(C)[C@@H]3CC=C4[C@@H](C=C(O)C(=O)C4(C)C)[C@]3(C)C(=O)C[C@]12C` [Cucurbitacin E] it was -0.9%. With `CC(C)(O)/C=C/C(=O)[C@](C)(O)[C@H]1[C@H](O)C[C@@]2(C)[C@@H]3CC=C4[C@@H](C[C@H](O)C(=O)C4(C)C)[C@]3(C)C(=O)C[C@]12C` [Cucurbitacin D], the “OC43 Inhibition rate” value is 2.5%.

In the case of `CC(C)(O)[C@@H]1[C@H]2OC(=O)[C@@H]1[C@]1(O)C[C@H]3O[C@]34C(=O)O[C@H]2[C@]14C` [Picrotin], the “OC43 Inhibition rate” value is -0.1%. Turning to `C[C@]12CC[C@H](O)C[C@H]1CC[C@@H]1[C@@H]2CC[C@]2(C)[C@@H](c3ccc(=O)oc3)C[C@H]3O[C@]132` [Resibufogenin], the “OC43 Inhibition rate” value turned out to be 6.7%. In the case of `CC(=O)O[C@H]1C[C@]2(O)[C@@H]3CC[C@@H]4C[C@@H](O)CC[C@]4(C)[C@H]3CC[C@]2(C)[C@H]1c1ccc(=O)oc1` [Bufotalin] it was -8.2%; in that of `CC(C)=CCC[C@@](C)(O)[C@H]1CC[C@]2(C)[C@@H]1[C@H](O)C[C@@H]1[C@@]3(C)CC[C@H](O[C@@H]4O[C@H](CO)[C@@H](O)[C@H](O)[C@H]4O)C(C)(C)[C@@H]3CC[C@]12C` [20(R)-Ginsenoside Rh2], 0%. In the case of `C[C@]12CC[C@H](O)C[C@@]1(O)CC[C@@H]1[C@@H]2CC[C@]2(C)[C@@H](c3ccc(=O)oc3)CC[C@]12O` [Telocinobufagin] it was 4.6; in that of `CCN1C[C@]2(C)CC[C@H](O)[C@]34C1[C@@H](C[C@H]23)[C@@]1(O)C[C@H](OC)[C@H]2C[C@@H]4[C@@H]1[C@H]2O` [Karacoline], -0.5%. In the case of `CC(C)=CCC[C@](C)(O)[C@H]1CC[C@]2(C)[C@@H]1[C@H](O)C[C@@H]1[C@@]3(C)CC[C@H](O[C@@H]4O[C@H](CO)[C@@H](O)[C@H](O)[C@H]4O)C(C)(C)[C@@H]3CC[C@]12C` [Ginsenoside Rh2], the “OC43 Inhibition rate” value is listed as -1.4%. The same measure for `N#CCc1ccc(O)cc1` [4-Hydroxybenzyl cyanide]: -0.5; for `CC(C)=CCC[C@@](C)(O)[C@H]1CC[C@]2(C)[C@@H]1[C@H](O)C[C@@H]1[C@@]3(C)CC[C@H](O)C(C)(C)[C@@H]3[C@@H](O[C@@H]3O[C@H](CO)[C@@H](O)[C@H](O)[C@H]3O)C[C@]12C` [(20R)-Ginsenoside Rh1]: -0.3%.

Regarding `C=C1[C@H](OC(C)=O)[C@@H](OC(=O)c2ccccc2)[C@@H](OC(C)=O)C(C)(C)[C@H]2O[C@](O)([C@H](C)C2=O)[C@@]2(OC(C)=O)C[C@H](C)[C@H](OC(C)=O)[C@@H]2[C@H]1OC(C)=O` [Kansuinine A], the “OC43 Inhibition rate” value worked out at 1.5%. The same measure for `CC1=C2C[C@H]3[C@@H](CC(=O)[C@H]4C[C@@H](O)CC[C@@]43C)[C@@H]2CC[C@]12O[C@@H]1C[C@H](C)CN[C@H]1[C@H]2C` [Peimisine]: 7.6%; for `CC(C)(O)[C@H]1O[C@H]2CC[C@@]3(C)[C@@](O)(CC[C@H]4Cc5c([nH]c6ccccc56)[C@@]43C)C2=CC1=O` [Paxilline]: 5.6%.

In the case of `O=C1C=CC[C@@H]2[C@H]3CCC[N+]4([O-])CCC[C@@H](CN12)[C@@H]34` (some centres unmarked) [Oxysophocarpine], the “OC43 Inhibition rate” value was -0.3%. The same measure for `CNC[C@H](N)C(=O)O` [β-N-methylamino-L-alanine (hydrochloride)]: 0.7%; for `C/C(=C\c1csc(C)n1)[C@@H]1C[C@@H]2O[C@@H]2CCC[C@H](C)[C@H](O)[C@@H](C)C(=O)C(C)(C)[C@@H](O)CC(=O)O1` [Epothilone A]: -0.9%; for `CCOC1c2c(ccc3c2OCO3)-c2ccc3cc4c(cc3c2N1C)OCO4` (centres unmarked) [Ethoxysanguinarine]: -0.4%. In the case of `COC[C@@]12CC[C@H](OC)[C@@]34[C@@H]5C[C@@]6(O)[C@H](OC(=O)c7ccccc7)[C@@H]5[C@@](OC(C)=O)([C@@H]([C@H](OC)[C@H]13)[C@H]4N(C)C2)[C@@H](O)[C@@H]6OC` [Hypaconitine] it was 0%; in that of `CC1(C)[C@H]2O[C@H]2[C@H]2[C@](C)(O)[C@@H]3CC[C@@H]4[C@@H](O)[C@@]3(C[C@@H](O)[C@@]21O)C[C@@]4(C)O` [Rhodojaponin III], -0.8%.

For the compound `CC(C)[C@]12CC(=O)[C@H](C)[C@H]1C2` [α-Thujone], the “OC43 Inhibition rate” value is given as 2.6%.

With `C[C@H](CCC(=O)O)C[C@H](C)C[C@H](C)C(=O)/C=C(\O)[C@H](C)C[C@H](C)C/C=C/[C@@H](C)[C@@H](O)[C@@H](C)[C@@H](O)C[C@@H]1CC[C@@](C)([C@H]2CC[C@@](C)([C@@H](C)O)O2)O1` [Ionomycin (calcium)], the “OC43 Inhibition rate” value is recorded as -3.3%. Consider `O=C1C([C@@H]2O[C@H](CO)[C@@H](O)[C@H](O)[C@H]2O)=C(O)/C(=C(O)/C=C/c2ccc(O)cc2)C(=O)C1(O)[C@@H]1O[C@H](CO)[C@@H](O)[C@H](O)[C@H]1O` (some centres unmarked) [Hydroxysafflor yellow A], for which the “OC43 Inhibition rate” value is 0.2%. The same measure for `C[S+](CC[C@H](N)C(=O)[O-])C[C@H]1O[C@@H](n2cnc3c(N)ncnc32)[C@H](O)[C@@H]1O` (stereo partly drawn) [S-Adenosyl-L-methionine (disulfate tosylate)]: -2.9%.

The record behind these values is publication PMC12431657, “Discovery and mechanistic insights of dibenzoylmethane as a broad spectrum inhibitor of coronavirus” (PLOS Pathogens, 2025).
